Some of the results follow.

Sequences of proteins named here, by UniProt entry; tags and fusion partners are left off.
UniProt Q0JBA9, entry or part of it: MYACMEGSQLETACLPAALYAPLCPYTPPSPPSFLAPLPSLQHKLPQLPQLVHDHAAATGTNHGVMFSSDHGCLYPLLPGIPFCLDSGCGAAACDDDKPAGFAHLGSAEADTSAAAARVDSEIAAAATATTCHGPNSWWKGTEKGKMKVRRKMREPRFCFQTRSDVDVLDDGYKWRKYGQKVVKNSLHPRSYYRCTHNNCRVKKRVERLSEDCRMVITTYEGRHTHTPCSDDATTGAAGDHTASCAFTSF

The test deals with OsWRKY34 (Oryza sativa, UniProt Q0JBA9 1-250). Briefly: protein-binding microarray (RPBM); PBS, 2% BSA, 51.3 ng/ul salmon testes DNA, 50 uM zinc acetate, 200 nM TF, 25 C, 1 h; high values mean tight binding. The settings on record: protein: recombinant; tags: N-terminal polyhistidine and DsRed monomer fusion (pET32a); label: CyDye5-dUTP incorporated in the synthesized complementary strand; 3' TTTTT single-stranded linker to array surface; dsDNA, one strand shown. The procedure, abridged:
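The binding signal for each feature is its fluorescence intensity in arbitrary units. An Axon 4000B scanner was used to read a custom Agilent array that had been made double-stranded with Cy5-dUTP primer extension, blocked with 2% BSA, incubated at 25 °C for 1 h with 200 nM protein in PBS, 2% BSA, salmon testes DNA and 50 µM zinc acetate, and washed. The protein was an N-terminal polyhistidine–DsRed transcription factor fusion from E. coli BL21-CodonPlus, purified on Ni–NTA.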
With “CCACGTGGCGGGCGAACCCATCCCTCCCGGCCCCTACCCGCGGAGTCACCTAGTGCAG”, the binding signal is 8590 fluorescence intensity (a.u.).
For the sequence “GCCTTTTTCTTCCACCGTTGCGAGTTCTCTCTGCCTGCGCCGGAGTCACCTAGTGCAG”, the binding signal was 12800 fluorescence intensity (a.u.).
As to “AAACCCTGGGTTTTCGTATCCAACGTTTGATCATCTGTCTCGGAGTCACCTAGTGCAG”, the binding signal is 8310 fluorescence intensity (a.u.).
With “CCCCGCGCTCGTCTCTTCGCGCCCAGATATTTCACCACGTCGGAGTCACCTAGTGCAG”, the binding signal was 13400 fluorescence intensity (a.u.).
Then “CATCTCCCAGATCCGCCTGTCTCCGACCTCCACACCGATGCGGAGTCACCTAGTGCAG”, with 9790 fluorescence intensity (a.u.); and “TTGTCTGGATTCCACAGAATCACGCCTCGGATCTTCTGCGCGGAGTCACCTAGTGCAG”, with 8150 fluorescence intensity (a.u.).
In the case of “ATACTCACAGCCCCTATATCTCTCCCTTTTTTTAAAAAAGCGGAGTCACCTAGTGCAG”, the binding signal is 9390 fluorescence intensity (a.u.).
For “CCATTTCCGTTTAGTGACAGATAGTTTATGTGATCAGCTCCGGAGTCACCTAGTGCAG” the value was 9310 fluorescence intensity (a.u.); for “GGGGCGCAGGGGAGGGAGGAAAGGAGGCGGAGCACGGCGTCGGAGTCACCTAGTGCAG”, 10500 fluorescence intensity (a.u.).
For “TTGCCGCTGCAGGCGCTGCCGCCGTTGAGCCGACTCGATTCGGAGTCACCTAGTGCAG” the value was 9260 fluorescence intensity (a.u.); for “AGGTATCGCAGGATCCTAACCATTCACATGTTGTCGGGGACGGAGTCACCTAGTGCAG”, 9040 fluorescence intensity (a.u.).
For “CTGGGCGTGCCACGTCGACGTCCAGCTCAGCATCACCATACGGAGTCACCTAGTGCAG” the value was 8440 fluorescence intensity (a.u.).
Consider “TGACTTGATATTACCTTTTGTCCGGTTTTTATTGTTGTGTCGGAGTCACCTAGTGCAG”, for which the binding signal is 8670 fluorescence intensity (a.u.).
For “CACACGCGGGTCTTCCTCGTTTGCGCAACTGCATCCACGACGGAGTCACCTAGTGCAG” the value was 8240 fluorescence intensity (a.u.).
Then “CTTGCTGTTACGCACCACATTGATTTACTTTCTTTTTCTTCGGAGTCACCTAGTGCAG”, with 11600 fluorescence intensity (a.u.); and “ACATTCAATTTTATTCATATATCCCTTACCCTTTCATTTGCGGAGTCACCTAGTGCAG”, with 9360 fluorescence intensity (a.u.).
Then “GTGTCTATGGAGTATATTTTTTCTTTTCTGATTGATTGAACGGAGTCACCTAGTGCAG”, with 9530 fluorescence intensity (a.u.); and “TTAATCAGTTTCTTTAATCGGGTGGTGTCTATTTACTAATCGGAGTCACCTAGTGCAG”, with 12000 fluorescence intensity (a.u.); and “CACACACACAAAACCGCATTACTACTCGATCGCCGGCGTCCGGAGTCACCTAGTGCAG”, with 11000 fluorescence intensity (a.u.).
Consider “TGTGTTCTCCTTGCCGATCCCTTGCGCTAGCCATCTTCCGCGGAGTCACCTAGTGCAG”, for which the binding signal was 9590 fluorescence intensity (a.u.).
Consider “AGTTACCGTGCCGGCTGCATGCTCGATGTAAACAAAGACACGGAGTCACCTAGTGCAG”, for which the binding signal is 8350 fluorescence intensity (a.u.).
Consider “AAATCTTAATTGAAGTGTAGTGGTAGTTTGTATGTTAGTTCGGAGTCACCTAGTGCAG”, for which the binding signal was 8380 fluorescence intensity (a.u.).
Then “AAAATGAATTTTGTTTTGATGCTGTTTCATTCAACTGACACGGAGTCACCTAGTGCAG”, with 9080 fluorescence intensity (a.u.); and “CCGGCGGCGGCTTTAGGGTTAGGGTTTTGTTTTTTTAGATCGGAGTCACCTAGTGCAG”, with 10100 fluorescence intensity (a.u.); and “AGTTCAAAATCCATCCGGATCCCACATTCTCTTCCCCAAGCGGAGTCACCTAGTGCAG”, with 8750 fluorescence intensity (a.u.).
In the case of “GCCAGTTTGCCACCCTTCCACTCGTTCGCGCTCTCTCTCTCGGAGTCACCTAGTGCAG”, the binding signal was 11300 fluorescence intensity (a.u.).
With “GAACACCACCAAATCCGATCATCTCTCACCTAGCTGCCATCGGAGTCACCTAGTGCAG”, the binding signal is 10500 fluorescence intensity (a.u.).
On to “TAGTCTTTTCCATGTCATGTGATCATGTGTGGAGTTGATTCGGAGTCACCTAGTGCAG”, for which the binding signal is 8550 fluorescence intensity (a.u.).
Then “CTCCTTGGGCCGGCGGTGCTCCCGGACAACATCGCCTTCACGGAGTCACCTAGTGCAG”, with 12700 fluorescence intensity (a.u.); and “CAGATTATAATTGTCGACGCTATTTGTGATCCCGTGCATGCGGAGTCACCTAGTGCAG”, with 8780 fluorescence intensity (a.u.).
For “GTGCTGCTCTGTTGGATCGCAACGGTATATTTATTTCTATCGGAGTCACCTAGTGCAG” the value was 9540 fluorescence intensity (a.u.).
For “GCACACCGTCTTCGCAATCTCCTTTGGTCGGCTGCCCAATCGGAGTCACCTAGTGCAG” the value was 8170 fluorescence intensity (a.u.).
Take “AGTGGGGAAGGTGGAGAGGGTGGGTTGGGTGTTAGTACCACGGAGTCACCTAGTGCAG”: the binding signal was 14500 fluorescence intensity (a.u.).
In the case of “CTTTATCTGTGGATGTGTATATGTAGGTGTTGGTTGATCGCGGAGTCACCTAGTGCAG”, the binding signal was 8630 fluorescence intensity (a.u.).
Then “CCCGTTTCACTGTGTGTGTGTGTGTGACGTTAACACGCTACGGAGTCACCTAGTGCAG”, with 8490 fluorescence intensity (a.u.).
Then “TCAATTCCCACGGCCGTACTACTACGTGTCATCGCAATCTCGGAGTCACCTAGTGCAG”, with 8150 fluorescence intensity (a.u.).
For the sequence “TCGGCCTGTTCGTTCGATCGATCGATCTCTCCCGCTACGCCGGAGTCACCTAGTGCAG”, the binding signal was 9680 fluorescence intensity (a.u.).
Take “AAACTAGCTACTTGACCCTAGAGTACTTCTACAACCATCCCGGAGTCACCTAGTGCAG”: the binding signal was 8810 fluorescence intensity (a.u.).
On to “TACTCTCATGATTTTCTCTTTGTTCCAGACTTGCCAATCCCGGAGTCACCTAGTGCAG”, for which the binding signal was 9150 fluorescence intensity (a.u.).
Then “TGAAGCAGTCTCACCCACCCGACCCAACCGAACCAACCCGCGGAGTCACCTAGTGCAG”, with 9490 fluorescence intensity (a.u.); and “ACTTTCTTTTTTTCTTTTTAACCTTGACCTTTACTGGCATCGGAGTCACCTAGTGCAG”, with 8690 fluorescence intensity (a.u.).
As for “AGCTGGATGATTTTCGCCGCCGCCGCCGCCGTGTTCTTTTCGGAGTCACCTAGTGCAG”, the binding signal is 8280 fluorescence intensity (a.u.).

These data come from publication PMC7819943, “Rice protein-binding microarrays: a tool to detect cis-acting elements near promoter regions in rice”.
